Consider 35 targets from the supplement of paper PMC6411743.

Chains of the proteins cited; added tags and fusions are not shown. Lines headed by an entry give the natural chain unless they say otherwise; changes in a name come on top.
UniProt Q99829: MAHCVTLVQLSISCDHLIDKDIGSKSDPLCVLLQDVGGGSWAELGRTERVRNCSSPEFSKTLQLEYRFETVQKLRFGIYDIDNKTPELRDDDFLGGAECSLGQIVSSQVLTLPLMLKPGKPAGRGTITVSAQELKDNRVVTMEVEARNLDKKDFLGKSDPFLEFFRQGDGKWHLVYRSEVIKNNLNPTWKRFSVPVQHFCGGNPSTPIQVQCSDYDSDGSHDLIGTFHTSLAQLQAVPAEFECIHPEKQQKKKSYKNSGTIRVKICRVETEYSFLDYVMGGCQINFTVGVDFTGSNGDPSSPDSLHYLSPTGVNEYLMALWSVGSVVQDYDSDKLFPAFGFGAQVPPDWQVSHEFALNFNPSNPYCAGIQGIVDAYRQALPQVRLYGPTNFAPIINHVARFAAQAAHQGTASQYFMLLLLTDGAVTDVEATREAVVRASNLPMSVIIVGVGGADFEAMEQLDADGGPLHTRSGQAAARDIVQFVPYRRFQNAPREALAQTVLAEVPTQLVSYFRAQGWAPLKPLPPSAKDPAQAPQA
UniProt Q9BU61: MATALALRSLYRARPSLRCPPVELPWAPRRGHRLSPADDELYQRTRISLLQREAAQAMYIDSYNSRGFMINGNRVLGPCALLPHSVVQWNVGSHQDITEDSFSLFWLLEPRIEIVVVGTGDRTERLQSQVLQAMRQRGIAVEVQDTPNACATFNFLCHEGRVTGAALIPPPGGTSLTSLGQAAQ
UniProt Q99575: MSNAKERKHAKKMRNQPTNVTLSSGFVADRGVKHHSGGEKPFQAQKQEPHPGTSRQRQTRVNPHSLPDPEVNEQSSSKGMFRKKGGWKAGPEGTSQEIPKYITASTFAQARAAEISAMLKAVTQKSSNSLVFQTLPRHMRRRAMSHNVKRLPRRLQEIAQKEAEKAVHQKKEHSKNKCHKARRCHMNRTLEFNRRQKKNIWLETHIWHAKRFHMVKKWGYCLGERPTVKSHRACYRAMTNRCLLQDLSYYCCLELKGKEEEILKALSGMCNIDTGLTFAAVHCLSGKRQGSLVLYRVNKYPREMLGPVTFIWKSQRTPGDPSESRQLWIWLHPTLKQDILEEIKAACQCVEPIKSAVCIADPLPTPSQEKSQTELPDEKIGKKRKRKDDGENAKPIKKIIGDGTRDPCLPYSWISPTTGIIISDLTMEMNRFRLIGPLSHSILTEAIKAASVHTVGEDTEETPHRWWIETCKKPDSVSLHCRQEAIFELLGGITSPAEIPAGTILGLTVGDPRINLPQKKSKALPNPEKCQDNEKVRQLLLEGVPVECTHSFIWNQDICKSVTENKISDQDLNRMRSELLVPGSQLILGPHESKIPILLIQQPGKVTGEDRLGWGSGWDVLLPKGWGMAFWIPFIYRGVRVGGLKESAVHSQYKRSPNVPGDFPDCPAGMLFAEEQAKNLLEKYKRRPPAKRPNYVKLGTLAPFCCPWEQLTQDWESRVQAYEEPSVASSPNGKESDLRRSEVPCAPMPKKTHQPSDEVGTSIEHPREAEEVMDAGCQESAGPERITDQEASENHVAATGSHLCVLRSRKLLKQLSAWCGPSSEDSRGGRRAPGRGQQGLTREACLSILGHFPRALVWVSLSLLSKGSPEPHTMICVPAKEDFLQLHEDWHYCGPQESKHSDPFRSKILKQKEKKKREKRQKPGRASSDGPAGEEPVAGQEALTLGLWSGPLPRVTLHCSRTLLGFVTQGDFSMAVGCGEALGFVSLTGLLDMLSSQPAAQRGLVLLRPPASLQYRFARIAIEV
UniProt Q99719: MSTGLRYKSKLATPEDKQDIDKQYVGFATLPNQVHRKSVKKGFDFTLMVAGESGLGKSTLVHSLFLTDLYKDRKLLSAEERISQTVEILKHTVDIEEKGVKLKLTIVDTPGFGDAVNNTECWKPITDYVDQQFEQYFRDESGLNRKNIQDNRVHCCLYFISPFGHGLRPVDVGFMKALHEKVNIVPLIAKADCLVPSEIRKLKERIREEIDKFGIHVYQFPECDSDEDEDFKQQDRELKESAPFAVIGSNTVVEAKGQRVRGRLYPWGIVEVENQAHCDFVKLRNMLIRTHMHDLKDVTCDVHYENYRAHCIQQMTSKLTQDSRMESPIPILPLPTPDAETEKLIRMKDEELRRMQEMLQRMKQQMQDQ
UniProt Q99567: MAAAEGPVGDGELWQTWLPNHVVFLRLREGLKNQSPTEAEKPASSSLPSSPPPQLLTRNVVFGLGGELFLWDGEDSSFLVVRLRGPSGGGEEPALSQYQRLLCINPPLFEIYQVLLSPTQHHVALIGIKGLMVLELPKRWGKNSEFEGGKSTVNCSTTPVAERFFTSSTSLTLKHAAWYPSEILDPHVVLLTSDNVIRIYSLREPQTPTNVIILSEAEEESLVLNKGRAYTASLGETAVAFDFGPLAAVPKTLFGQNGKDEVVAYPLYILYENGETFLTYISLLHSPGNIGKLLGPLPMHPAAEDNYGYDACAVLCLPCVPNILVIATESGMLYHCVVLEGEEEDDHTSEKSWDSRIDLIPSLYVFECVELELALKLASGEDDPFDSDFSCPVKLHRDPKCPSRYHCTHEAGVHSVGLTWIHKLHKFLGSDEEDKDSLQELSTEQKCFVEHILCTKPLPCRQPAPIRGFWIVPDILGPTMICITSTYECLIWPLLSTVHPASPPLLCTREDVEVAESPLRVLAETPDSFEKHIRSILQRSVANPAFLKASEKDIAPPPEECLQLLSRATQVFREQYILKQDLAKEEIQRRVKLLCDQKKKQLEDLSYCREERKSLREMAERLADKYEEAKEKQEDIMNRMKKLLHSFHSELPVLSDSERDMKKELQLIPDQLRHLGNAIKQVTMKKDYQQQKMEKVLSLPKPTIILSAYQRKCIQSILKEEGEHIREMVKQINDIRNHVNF
UniProt Q9BYV8: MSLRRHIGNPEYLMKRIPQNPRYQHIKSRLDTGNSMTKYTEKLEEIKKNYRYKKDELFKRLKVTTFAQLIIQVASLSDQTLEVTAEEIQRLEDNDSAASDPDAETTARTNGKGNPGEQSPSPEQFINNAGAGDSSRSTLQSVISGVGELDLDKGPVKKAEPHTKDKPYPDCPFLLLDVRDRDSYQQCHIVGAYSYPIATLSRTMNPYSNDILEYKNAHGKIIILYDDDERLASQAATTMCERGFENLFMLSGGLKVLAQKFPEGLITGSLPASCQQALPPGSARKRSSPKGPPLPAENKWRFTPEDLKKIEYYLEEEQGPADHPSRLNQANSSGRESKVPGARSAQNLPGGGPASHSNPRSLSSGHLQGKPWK
UniProt Q96TA2: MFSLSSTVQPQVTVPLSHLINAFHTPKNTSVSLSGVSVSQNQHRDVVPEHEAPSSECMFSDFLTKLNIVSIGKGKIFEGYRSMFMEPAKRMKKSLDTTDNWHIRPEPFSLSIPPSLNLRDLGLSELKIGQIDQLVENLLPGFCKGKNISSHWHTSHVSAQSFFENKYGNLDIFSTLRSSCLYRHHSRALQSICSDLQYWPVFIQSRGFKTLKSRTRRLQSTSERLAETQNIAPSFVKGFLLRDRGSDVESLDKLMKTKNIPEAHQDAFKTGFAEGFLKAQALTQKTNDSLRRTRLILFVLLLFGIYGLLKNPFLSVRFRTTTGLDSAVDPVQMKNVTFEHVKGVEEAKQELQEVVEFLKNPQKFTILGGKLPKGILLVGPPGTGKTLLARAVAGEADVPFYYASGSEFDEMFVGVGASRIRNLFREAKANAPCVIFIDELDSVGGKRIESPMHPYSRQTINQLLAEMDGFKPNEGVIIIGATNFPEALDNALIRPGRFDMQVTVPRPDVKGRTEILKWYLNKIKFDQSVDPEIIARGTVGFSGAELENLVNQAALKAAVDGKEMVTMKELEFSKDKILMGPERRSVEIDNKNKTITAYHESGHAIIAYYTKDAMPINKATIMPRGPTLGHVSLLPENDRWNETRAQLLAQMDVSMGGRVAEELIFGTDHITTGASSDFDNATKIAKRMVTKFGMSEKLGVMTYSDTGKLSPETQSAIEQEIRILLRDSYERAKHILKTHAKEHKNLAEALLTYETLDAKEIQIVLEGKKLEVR
UniProt Q9BWU1: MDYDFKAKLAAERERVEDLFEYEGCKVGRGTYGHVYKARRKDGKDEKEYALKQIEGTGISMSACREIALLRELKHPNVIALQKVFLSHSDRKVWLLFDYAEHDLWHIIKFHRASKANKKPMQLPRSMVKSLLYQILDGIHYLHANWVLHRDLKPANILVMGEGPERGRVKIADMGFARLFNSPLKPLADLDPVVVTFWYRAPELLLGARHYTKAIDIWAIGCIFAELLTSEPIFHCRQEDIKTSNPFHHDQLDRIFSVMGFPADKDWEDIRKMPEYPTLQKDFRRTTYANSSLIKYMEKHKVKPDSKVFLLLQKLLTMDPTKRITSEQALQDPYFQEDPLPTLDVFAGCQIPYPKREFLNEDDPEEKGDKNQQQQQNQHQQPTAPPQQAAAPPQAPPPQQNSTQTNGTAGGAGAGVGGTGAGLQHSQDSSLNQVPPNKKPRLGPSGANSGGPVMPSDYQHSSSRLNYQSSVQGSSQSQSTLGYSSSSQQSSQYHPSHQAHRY
UniProt Q9BWT6: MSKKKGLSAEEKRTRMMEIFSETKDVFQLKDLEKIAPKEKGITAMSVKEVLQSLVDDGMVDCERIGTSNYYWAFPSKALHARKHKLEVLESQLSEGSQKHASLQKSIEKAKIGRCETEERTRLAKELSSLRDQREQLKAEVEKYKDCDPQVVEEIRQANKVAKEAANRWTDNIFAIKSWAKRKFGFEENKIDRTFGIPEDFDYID
UniProt Q9BRF8, whole entry: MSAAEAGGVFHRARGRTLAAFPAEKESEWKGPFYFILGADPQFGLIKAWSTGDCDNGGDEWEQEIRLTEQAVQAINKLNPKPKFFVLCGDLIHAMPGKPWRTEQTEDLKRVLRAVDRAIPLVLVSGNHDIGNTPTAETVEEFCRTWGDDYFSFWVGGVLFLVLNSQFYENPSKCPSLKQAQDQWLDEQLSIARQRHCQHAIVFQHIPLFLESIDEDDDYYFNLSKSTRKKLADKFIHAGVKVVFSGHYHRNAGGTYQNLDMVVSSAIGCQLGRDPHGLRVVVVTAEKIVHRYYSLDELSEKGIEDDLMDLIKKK
UniProt Q9BVA0, whole entry: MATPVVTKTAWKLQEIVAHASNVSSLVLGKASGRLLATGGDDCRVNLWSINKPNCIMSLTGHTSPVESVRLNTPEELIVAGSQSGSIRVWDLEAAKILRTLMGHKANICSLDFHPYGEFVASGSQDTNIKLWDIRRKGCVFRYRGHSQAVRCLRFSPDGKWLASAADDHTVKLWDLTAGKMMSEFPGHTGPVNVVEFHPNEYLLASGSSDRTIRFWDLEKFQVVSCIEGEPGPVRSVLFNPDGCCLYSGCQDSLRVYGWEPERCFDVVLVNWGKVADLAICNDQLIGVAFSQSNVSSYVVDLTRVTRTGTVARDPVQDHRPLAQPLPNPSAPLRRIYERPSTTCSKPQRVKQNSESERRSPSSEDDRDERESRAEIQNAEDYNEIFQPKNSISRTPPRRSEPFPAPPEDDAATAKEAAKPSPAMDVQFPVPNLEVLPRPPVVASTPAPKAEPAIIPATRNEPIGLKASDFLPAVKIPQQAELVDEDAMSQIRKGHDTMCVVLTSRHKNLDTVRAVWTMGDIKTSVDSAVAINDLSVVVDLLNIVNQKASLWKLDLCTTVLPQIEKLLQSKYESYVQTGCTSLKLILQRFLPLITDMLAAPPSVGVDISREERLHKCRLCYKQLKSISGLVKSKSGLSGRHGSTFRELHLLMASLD
UniProt Q9BRJ6: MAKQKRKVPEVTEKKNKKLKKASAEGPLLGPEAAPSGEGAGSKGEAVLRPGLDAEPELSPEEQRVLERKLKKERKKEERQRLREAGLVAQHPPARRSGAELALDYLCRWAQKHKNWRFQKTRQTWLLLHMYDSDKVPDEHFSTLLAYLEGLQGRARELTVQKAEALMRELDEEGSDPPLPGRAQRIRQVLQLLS
UniProt Q9BSC4: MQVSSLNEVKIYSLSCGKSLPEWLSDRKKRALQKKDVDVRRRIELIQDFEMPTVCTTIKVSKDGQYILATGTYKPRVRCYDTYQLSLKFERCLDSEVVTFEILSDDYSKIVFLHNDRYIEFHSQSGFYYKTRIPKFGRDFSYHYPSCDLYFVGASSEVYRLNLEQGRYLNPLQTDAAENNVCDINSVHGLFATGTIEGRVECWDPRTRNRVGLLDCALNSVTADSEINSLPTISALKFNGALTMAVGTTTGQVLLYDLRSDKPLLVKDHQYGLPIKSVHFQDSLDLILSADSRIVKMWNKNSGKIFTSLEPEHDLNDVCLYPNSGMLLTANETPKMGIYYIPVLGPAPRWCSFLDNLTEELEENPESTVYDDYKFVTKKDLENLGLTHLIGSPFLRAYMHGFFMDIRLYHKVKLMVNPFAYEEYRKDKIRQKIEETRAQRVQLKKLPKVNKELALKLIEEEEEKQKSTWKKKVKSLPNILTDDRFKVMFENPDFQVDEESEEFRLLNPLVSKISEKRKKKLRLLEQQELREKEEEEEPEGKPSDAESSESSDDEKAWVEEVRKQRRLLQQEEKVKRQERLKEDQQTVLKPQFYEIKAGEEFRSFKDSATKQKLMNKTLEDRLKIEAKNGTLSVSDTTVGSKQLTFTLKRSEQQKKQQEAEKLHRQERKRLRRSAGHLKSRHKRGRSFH

± gives the standard deviation of the averaged measurements. The list shows a part of the results, in another mix than the full data.

Compound in one experiment: Nc1ncnc2c1ncn2[C@@H]1O[C@H](COP(=O)(O)OP(=O)(O)OP(=O)(O)O)[C@@H](O)[C@H]1O [adenosine triphosphate]
Kind of experiment: NP40-soluble protein abundance relative to vehicle (solubility fold change) (ratio); higher = more soluble protein in presence of ATP. As to conditions: concentration: 1mM. The method in brief:
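Across three independent experiments, values are fold changes against the detergent-processed vehicle for each replicate, based on vsn-normalised intensities. The samples were Jurkat crude lysate treated with eight concentrations (0.1 to 10 mM) for 10 min at room temperature and then 3 min at 37 °C. Lysate was solubilised with 0.8% NP40 and benzonase, ultracentrifuged, and the supernatant analysed by TMT-labelled LC-MS/MS.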
On to CPNE1 (UniProt Q99829), for which the NP40-soluble protein abundance was 0.978 ± 0.091.

With UniProt Q9BU61, the NP40-soluble protein abundance amounted to 0.995 ± 0.093.

Regarding UniProt Q9BRR6 and related entries, the NP40-soluble protein abundance came out at 1.11 ± 0.085.

In the case of POP1 (UniProt Q99575), the NP40-soluble protein abundance was found to be 0.994 ± 0.038.

Consider UniProt Q99719 and related entries, for which the NP40-soluble protein abundance is 1.05 ± 0.024.

With “UniProt Q99996-3|Q99996-5|A0A0A0MRF6|Q99996 and related entries”, the NP40-soluble protein abundance came to 1.02 ± 0.067.

On to CDC5L (UniProt Q99459), for which the NP40-soluble protein abundance worked out at 0.979 ± 0.047.

As for NUP88 (UniProt Q99567), the NP40-soluble protein abundance worked out at 1.01 ± 0.043.

Turning to UniProt Q9BQ52 and related entries, the NP40-soluble protein abundance was 1.01 ± 0.025.

As for UniProt Q9BV86, the NP40-soluble protein abundance is 0.969 ± 0.063.

As to TXN2 (UniProt Q99757), the NP40-soluble protein abundance was 0.97 ± 0.079.

Take MRI1 (UniProt Q9BV20): the NP40-soluble protein abundance came to 0.982 ± 0.039.

With UniProt Q99447 and related entries, the NP40-soluble protein abundance turned out to be 1.03 ± 0.098.

Take UniProt Q99873-3|Q99873-4: the NP40-soluble protein abundance is 1.13 ± 0.25.

As to UniProt Q9BYV8, the NP40-soluble protein abundance stood at 0.983 ± 0.068.

As to UniProt Q9BV73 and related entries, the NP40-soluble protein abundance came out at 0.93 ± 0.044.

As to UniProt Q96TA2 and related entries, the NP40-soluble protein abundance turned out to be 1.06 ± 0.056.

As to UniProt Q9BWU1, the NP40-soluble protein abundance turned out to be 0.918 ± 0.13.

Regarding SDF4 (UniProt Q9BRK5), the NP40-soluble protein abundance came out at 0.981 ± 0.098.

As to RAB11FIP5 (UniProt Q9BXF6), the NP40-soluble protein abundance was found to be 1.17 ± 0.12.

Turning to UniProt Q9BXS6 and related entries, the NP40-soluble protein abundance worked out at 0.973 ± 0.063.

Turning to ECSIT (UniProt Q9BQ95), the NP40-soluble protein abundance turned out to be 1 ± 0.07.

On to MND1 (UniProt Q9BWT6), for which the NP40-soluble protein abundance turned out to be 0.948 ± 0.083.

Take CPPED1 (UniProt Q9BRF8): the NP40-soluble protein abundance is 1.01 ± 0.082.

Regarding UniProt Q99622 and related entries, the NP40-soluble protein abundance is 0.872 ± 0.19.

Take ULBP2 (UniProt Q9BZM5): the NP40-soluble protein abundance is 1 ± 0.04.

In the case of KATNB1 (UniProt Q9BVA0), the NP40-soluble protein abundance stood at 0.963 ± 0.016.

Turning to C7orf50 (UniProt Q9BRJ6), the NP40-soluble protein abundance stood at 1.02 ± 0.034.

On to CORO1B (UniProt Q9BR76), for which the NP40-soluble protein abundance was 1.06 ± 0.091.

As to PI4K2A (UniProt Q9BTU6), the NP40-soluble protein abundance turned out to be 0.987 ± 0.077.

As to UniProt Q9BSC4 and related entries, the NP40-soluble protein abundance was 1.12 ± 0.084.

Regarding ITPA (UniProt Q9BY32), the NP40-soluble protein abundance was 1.04 ± 0.079.

Turning to RNF2 (UniProt Q99496), the NP40-soluble protein abundance amounted to 1.06 ± 0.025.

Turning to SF3B5 (UniProt Q9BWJ5), the NP40-soluble protein abundance was determined as 1.07 ± 0.079.

With UniProt Q9BQP7, the NP40-soluble protein abundance is 1.02 ± 0.013.

Still in this experiment, the particulars now being: concentration: 2mM.
With CPNE1 (UniProt Q99829), the NP40-soluble protein abundance worked out at 0.969 ± 0.068.

For the target UniProt Q9BU61, the NP40-soluble protein abundance stood at 0.991 ± 0.051.

For the target UniProt Q9BRR6 and related entries, the NP40-soluble protein abundance was 1.26 ± 0.23.

Consider POP1 (UniProt Q99575), for which the NP40-soluble protein abundance is 1.01 ± 0.035.

UniProt Q99719 and related entries: the NP40-soluble protein abundance came out at 1.054 ± 0.01.

Turning to “UniProt Q99996-3|Q99996-5|A0A0A0MRF6|Q99996 and related entries”, the NP40-soluble protein abundance came out at 0.996 ± 0.078.

As for CDC5L (UniProt Q99459), the NP40-soluble protein abundance came out at 0.997 ± 0.036.

For NUP88 (UniProt Q99567), the NP40-soluble protein abundance came out at 0.999 ± 0.015.

As to UniProt Q9BQ52 and related entries, the NP40-soluble protein abundance came to 1 ± 0.018.

Turning to UniProt Q9BV86, the NP40-soluble protein abundance stood at 0.978 ± 0.071.

In the case of TXN2 (UniProt Q99757), the NP40-soluble protein abundance was determined as 0.96 ± 0.064.

For MRI1 (UniProt Q9BV20), the NP40-soluble protein abundance stood at 0.992 ± 0.05.

UniProt Q99447 and related entries: the NP40-soluble protein abundance was 1.01 ± 0.089.

On to UniProt Q99873-3|Q99873-4, for which the NP40-soluble protein abundance came to 1.07 ± 0.17.

UniProt Q9BYV8: the NP40-soluble protein abundance turned out to be 1.01 ± 0.034.

Regarding UniProt Q9BV73 and related entries, the NP40-soluble protein abundance came out at 0.928 ± 0.035.

On to UniProt Q96TA2 and related entries, for which the NP40-soluble protein abundance came out at 1.05 ± 0.032.

As for UniProt Q9BWU1, the NP40-soluble protein abundance amounted to 0.917 ± 0.1.

For SDF4 (UniProt Q9BRK5), the NP40-soluble protein abundance is 0.988 ± 0.07.

On to RAB11FIP5 (UniProt Q9BXF6), for which the NP40-soluble protein abundance amounted to 1.29 ± 0.12.

Turning to UniProt Q9BXS6 and related entries, the NP40-soluble protein abundance worked out at 1.01 ± 0.014.

Take ECSIT (UniProt Q9BQ95): the NP40-soluble protein abundance turned out to be 0.98 ± 0.053.

As for MND1 (UniProt Q9BWT6), the NP40-soluble protein abundance was 0.94 ± 0.041.

For CPPED1 (UniProt Q9BRF8), the NP40-soluble protein abundance is 0.981 ± 0.073.

Regarding UniProt Q99622 and related entries, the NP40-soluble protein abundance amounted to 0.865 ± 0.2.

As for ULBP2 (UniProt Q9BZM5), the NP40-soluble protein abundance came to 0.986 ± 0.046.

KATNB1 (UniProt Q9BVA0): the NP40-soluble protein abundance amounted to 0.994 ± 0.043.

C7orf50 (UniProt Q9BRJ6): the NP40-soluble protein abundance was 1.05 ± 0.049.

As for CORO1B (UniProt Q9BR76), the NP40-soluble protein abundance was determined as 1.08 ± 0.059.

For PI4K2A (UniProt Q9BTU6), the NP40-soluble protein abundance is 1 ± 0.068.

Take UniProt Q9BSC4 and related entries: the NP40-soluble protein abundance is 1.17 ± 0.1.

Regarding ITPA (UniProt Q9BY32), the NP40-soluble protein abundance was found to be 1.03 ± 0.035.

With RNF2 (UniProt Q99496), the NP40-soluble protein abundance was determined as 1.1 ± 0.027.

Consider SF3B5 (UniProt Q9BWJ5), for which the NP40-soluble protein abundance was 1.04 ± 0.1.

Take UniProt Q9BQP7: the NP40-soluble protein abundance amounted to 0.99077 ± 0.00014.

Still in this experiment, the particulars now being: concentration: 4mM.
Consider CPNE1 (UniProt Q99829), for which the NP40-soluble protein abundance turned out to be 0.93 ± 0.043.

As to UniProt Q9BU61, the NP40-soluble protein abundance turned out to be 0.943 ± 0.078.

For UniProt Q9BRR6 and related entries, the NP40-soluble protein abundance came out at 1.1 ± 0.12.

Take POP1 (UniProt Q99575): the NP40-soluble protein abundance turned out to be 1.05 ± 0.015.

With UniProt Q99719 and related entries, the NP40-soluble protein abundance stood at 1.05 ± 0.043.

In the case of “UniProt Q99996-3|Q99996-5|A0A0A0MRF6|Q99996 and related entries”, the NP40-soluble protein abundance turned out to be 0.993 ± 0.079.

Turning to CDC5L (UniProt Q99459), the NP40-soluble protein abundance amounted to 1.03 ± 0.034.

Turning to NUP88 (UniProt Q99567), the NP40-soluble protein abundance came to 1.02 ± 0.012.

For the target UniProt Q9BQ52 and related entries, the NP40-soluble protein abundance was 0.985 ± 0.024.

Turning to UniProt Q9BV86, the NP40-soluble protein abundance was found to be 0.967 ± 0.072.

With TXN2 (UniProt Q99757), the NP40-soluble protein abundance was 0.85 ± 0.17.

On to MRI1 (UniProt Q9BV20), for which the NP40-soluble protein abundance is 0.986 ± 0.023.

In the case of UniProt Q99447 and related entries, the NP40-soluble protein abundance stood at 0.966 ± 0.083.

On to UniProt Q99873-3|Q99873-4, for which the NP40-soluble protein abundance was found to be 1.05 ± 0.16.

For UniProt Q9BYV8, the NP40-soluble protein abundance turned out to be 1.014 ± 0.0022.

Take UniProt Q9BV73 and related entries: the NP40-soluble protein abundance was 0.957 ± 0.049.

As to UniProt Q96TA2 and related entries, the NP40-soluble protein abundance is 1.06 ± 0.037.

On to UniProt Q9BWU1, for which the NP40-soluble protein abundance was 0.936 ± 0.12.

SDF4 (UniProt Q9BRK5): the NP40-soluble protein abundance turned out to be 0.96 ± 0.032.

For the target RAB11FIP5 (UniProt Q9BXF6), the NP40-soluble protein abundance was 1.26 ± 0.1.

With UniProt Q9BXS6 and related entries, the NP40-soluble protein abundance amounted to 1.04 ± 0.053.

As to ECSIT (UniProt Q9BQ95), the NP40-soluble protein abundance came to 1.02 ± 0.053.

For MND1 (UniProt Q9BWT6), the NP40-soluble protein abundance came out at 0.947 ± 0.051.

On to CPPED1 (UniProt Q9BRF8), for which the NP40-soluble protein abundance was found to be 0.973 ± 0.04.

Regarding UniProt Q99622 and related entries, the NP40-soluble protein abundance was 0.889 ± 0.15.

Turning to ULBP2 (UniProt Q9BZM5), the NP40-soluble protein abundance was found to be 0.987 ± 0.041.

For KATNB1 (UniProt Q9BVA0), the NP40-soluble protein abundance worked out at 0.985 ± 0.011.

On to C7orf50 (UniProt Q9BRJ6), for which the NP40-soluble protein abundance stood at 1.06 ± 0.05.

Turning to CORO1B (UniProt Q9BR76), the NP40-soluble protein abundance was 1.06 ± 0.074.

As for PI4K2A (UniProt Q9BTU6), the NP40-soluble protein abundance worked out at 0.972 ± 0.047.

As to UniProt Q9BSC4 and related entries, the NP40-soluble protein abundance was determined as 1.2 ± 0.097.

As to ITPA (UniProt Q9BY32), the NP40-soluble protein abundance is 1.03 ± 0.062.

As for RNF2 (UniProt Q99496), the NP40-soluble protein abundance turned out to be 1.15 ± 0.015.

As to SF3B5 (UniProt Q9BWJ5), the NP40-soluble protein abundance was 1.07 ± 0.085.

Regarding UniProt Q9BQP7, the NP40-soluble protein abundance came to 1.01 ± 0.011.
